The target in test [1] is T1, EEN fused to the N-terminal fragment of CFP (pSCYNE(R)) (Arabidopsis thaliana) (UniProt Q8RWS0).
T1 sequence: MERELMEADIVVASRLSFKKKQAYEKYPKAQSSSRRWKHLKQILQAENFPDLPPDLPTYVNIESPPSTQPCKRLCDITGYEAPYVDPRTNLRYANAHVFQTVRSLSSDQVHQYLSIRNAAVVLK
In words: split reporter.

Chains of the proteins cited; added tags and fusions are not shown.
UniProt Q9SK03: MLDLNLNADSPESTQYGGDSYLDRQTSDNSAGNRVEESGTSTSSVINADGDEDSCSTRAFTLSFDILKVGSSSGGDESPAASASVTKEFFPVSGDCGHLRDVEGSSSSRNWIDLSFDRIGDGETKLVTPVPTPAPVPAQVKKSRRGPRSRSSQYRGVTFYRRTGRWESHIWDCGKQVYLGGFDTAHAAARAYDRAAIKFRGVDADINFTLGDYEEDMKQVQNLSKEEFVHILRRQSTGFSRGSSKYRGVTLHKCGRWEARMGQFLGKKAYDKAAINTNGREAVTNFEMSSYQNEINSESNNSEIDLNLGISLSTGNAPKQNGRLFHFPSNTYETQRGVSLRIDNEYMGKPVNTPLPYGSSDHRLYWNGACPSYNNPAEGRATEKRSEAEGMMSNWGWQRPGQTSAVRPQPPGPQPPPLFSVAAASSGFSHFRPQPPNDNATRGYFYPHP

The target of test [2] is T2, EIN6 ENHANCER (EEN), bait fusion in pGBKT7 (Arabidopsis thaliana) (UniProt Q8RWS0).
T2 sequence: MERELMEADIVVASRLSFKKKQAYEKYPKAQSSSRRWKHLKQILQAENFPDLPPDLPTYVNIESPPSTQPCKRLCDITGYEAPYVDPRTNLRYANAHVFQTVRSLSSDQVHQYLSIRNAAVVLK
In words: two-hybrid.

The target of test [3] is T3, … PROTEIN 5 (ARP5), bait fusion in pGBKT7 (Arabidopsis thaliana) (UniProt Q940Z2).
T3 sequence: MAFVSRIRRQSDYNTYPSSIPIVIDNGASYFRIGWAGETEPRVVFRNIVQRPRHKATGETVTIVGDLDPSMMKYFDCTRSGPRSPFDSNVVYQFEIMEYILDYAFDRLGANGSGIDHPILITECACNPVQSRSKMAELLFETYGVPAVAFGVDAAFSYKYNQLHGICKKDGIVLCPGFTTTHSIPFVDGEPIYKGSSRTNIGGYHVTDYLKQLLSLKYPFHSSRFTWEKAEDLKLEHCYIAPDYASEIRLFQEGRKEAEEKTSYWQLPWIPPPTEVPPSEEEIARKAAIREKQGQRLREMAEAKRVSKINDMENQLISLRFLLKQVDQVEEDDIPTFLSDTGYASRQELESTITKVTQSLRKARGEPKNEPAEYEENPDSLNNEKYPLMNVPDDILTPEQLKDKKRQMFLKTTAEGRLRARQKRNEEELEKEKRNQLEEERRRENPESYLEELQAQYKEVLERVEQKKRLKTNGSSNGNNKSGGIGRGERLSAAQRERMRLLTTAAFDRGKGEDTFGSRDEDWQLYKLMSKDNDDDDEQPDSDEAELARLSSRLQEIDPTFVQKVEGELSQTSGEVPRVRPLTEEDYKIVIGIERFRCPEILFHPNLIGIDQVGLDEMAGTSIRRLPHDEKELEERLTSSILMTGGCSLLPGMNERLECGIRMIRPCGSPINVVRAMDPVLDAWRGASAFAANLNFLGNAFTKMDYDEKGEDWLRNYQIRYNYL
The test is described as follows: two-hybrid.

Results are given in words; binding and its absence hold for the method and conditions named. For some of these results: In cells and extracts the contact can be indirect. Some entries that bind do so weakly or less than the wild type. Tags and fused reporters may be left off the sequences shown.

On to “TOE1 fused to the C-terminal fragment of CFP (pSCYCE(R)) (from UniProt Q9SK03 1-449)”, for which the binding entry in test [1] was “binds”.

Turning to “TARGET OF EARLY ACTIVATION TAGGED (EAT) 1 (TOE1), prey fusion in pGADT7 (from UniProt Q9SK03 1-449)”, the binding result in test [2] and in test [3] was “binds” each time.

B1: ABA … 3 (ABI3), prey fusion in pGADT7 (protein, UniProt Q01593 1-720)
chain: MKSLHVAANAGDLAEDCGILGGDADDTVLMDGIDEVGREIWLDDHGGDNNHVHGHQDDDLIVHHDPSIFYGDLPTLPDFPCMSSSSSSSTSPAPVNAIVSSASSSSAASSSTSSAASWAILRSDGEDPTPNQNQYASGNCDDSSGALQSTASMEIPLDSSQGFGCGEGGGDCIDMMETFGYMDLLDSNEFFDTSAIFSQDDDTQNPNLMDQTLERQEDQVVVPMMENNSGGDMQMMNSSLEQDDDLAAVFLEWLKNNKETVSAEDLRKVKIKKATIESAARRLGGGKEAMKQLLKLILEWVQTNHLQRRRTTTTTTNLSYQQSFQQDPFQNPNPNNNNLIPPSDQTCFSPSTWVPPPPQQQAFVSDPGFGYMPAPNYPPQPEFLPLLESPPSWPPPPQSGPMPHQQFPMPPTSQYNQFGDPTGFNGYNMNPYQYPYVPAGQMRDQRLLRLCSSATKEARKKRMARQRRFLSHHHRHNNNNNNNNNNQQNQTQIGETCAAVAPQLNPVATTATGGTWMYWPNVPAVPPQLPPVMETQLPTMDRAGSASAMPRQQVVPDRRQGWKPEKNLRFLLQKVLKQSDVGNLGRIVLPKKEAETHLPELEARDGISLAMEDIGTSRVWNMRYRFWPNNKSRMYLLENTGDFVKTNGLQEGDFIVIYSDVKCGKYLIRGVKVRQPSGQKPEAPPSSAATKRQNKSQRNINNNSPSANVVVASPTSQTVK
As for B1, the binding result in test [2] and in test [3] was “no binding” throughout.

B2: LEAFY COTYLEDON 2 (LEC2), prey fusion in pGADT7 (protein, UniProt Q1PFR7 1-363)
chain: MDNFLPFPSSNANSVQELSMDPNNNRSHFTTVPTYDHHQAQPHHFLPPFSYPVEQMAAVMNPQPVYLSECYPQIPVTQTGSEFGSLVGNPCLWQERGGFLDPRMTKMARINRKNAMMRSRNNSSPNSSPSELVDSKRQLMMLNLKNNVQISDKKDSYQQSTFDNKKLRVLCEKELKNSDVGSLGRIVLPKRDAEANLPKLSDKEGIVVQMRDVFSMQSWSFKYKFWSNNKSRMYVLENTGEFVKQNGAEIGDFLTIYEDESKNLYFAMNGNSGKQNEGRENESRERNHYEEAMLDYIPRDEEEASIAMLIGNLNDHYPIPNDLMDLTTDLQHHQATSSSMPPEDHAYVGSSDDQVSFNDFEWW
As to B2, the binding result in test [2] and in test [3] was “no binding” each time.

These data come from doi:10.1101/2024.07.18.604029.
